Results are given in words; binding and its absence hold for the method and conditions named. Some entries that bind do so weakly or less than the wild type. Tags and fused reporters may be left off the sequences shown.
Target: T1, GDF-11 (UniProt O95390 299-407)
T1 sequence (looked up): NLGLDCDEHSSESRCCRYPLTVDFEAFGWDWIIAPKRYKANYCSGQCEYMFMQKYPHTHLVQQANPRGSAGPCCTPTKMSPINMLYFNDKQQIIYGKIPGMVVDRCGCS
Test: BiaCore; ligand coupled to the device, receptor-Fc flowed (reproduced from WO2006/012627)

Binder | binding
Soluble ActRIIB-Fc K74A (the 13th table) (Fc fusion, UniProt Q13705 19-119, looked up, not shown: a dimerising Fc or GST) SGRGEAETRECIYYNANWELERTNQSGLERCEGEQDKRLHCYASWANSSGTIELVAKGCWLDDFNCYDRQECVATEENPQVYFCCCEGNFCNERFTHLPEA | binds
Soluble ActRIIB-Fc F82A (Fc fusion, UniProt Q13705 19-119, looked up, not shown: a dimerising Fc or GST) SGRGEAETRECIYYNANWELERTNQSGLERCEGEQDKRLHCYASWANSSGTIELVKKGCWLDDANCYDRQECVATEENPQVYFCCCEGNFCNERFTHLPEA | binds

The remaining lines, values ahead:

binding | Binder
binds | Soluble ActRIIB-Fc WT (64A) (Fc fusion, UniProt Q13705 19-119, looked up, not shown: a dimerising Fc or GST) SGRGEAETRECIYYNANWELERTNQSGLERCEGEQDKRLHCYASWANSSGTIELVKKGCWLDDFNCYDRQECVATEENPQVYFCCCEGNFCNERFTHLPEA
binds | Soluble ActRIIB-Fc R40A (Fc fusion, UniProt Q13705 19-119, looked up, not shown: a dimerising Fc or GST) SGRGEAETRECIYYNANWELEATNQSGLERCEGEQDKRLHCYASWANSSGTIELVKKGCWLDDFNCYDRQECVATEENPQVYFCCCEGNFCNERFTHLPEA
